# Data source: PubChem BioAssay AID504808 (Drosophila RNAi Screening Center, 2011)
# Aim: 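Genes whose loss lifts activity of an E2F-responsive reporter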 (primary screen)
# System: Drosophila S2 cells
# Reagents: long dsRNA against Drosophila genes
# Detection: 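Firefly luciferase driven by E2F sites, normalised to Renilla luciferase on the same minimal promoter, measured by plate reader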
# Scale: E2F firefly: higher = more E2F reporter activity; Renilla normaliser: higher = more normaliser reporter signal
# Rule for the call: 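a knock-down counted as active when the firefly/Renilla E2F signal rose above 50%, a threshold chosen arbitrarily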
# The deposit covers about 21,000 reagents; this is an unselected part of those that have a named target and a result. Of all reagents, 18 (0.084%) are marked active. 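Raw counts without plate normalisation, one of two replicates; the ratio scores behind the calls were not deposited.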 The numbers tell different reagents against one gene apart. Not given: the amount of reagent, the time to read-out.
gene,reagent,"E2F firefly, rep 1","Renilla normaliser, rep 1",activity call
CG7906,1,85018,3272,inactive
Pif2 (PFTAIRE-interacting factor 2),1,1.37e5,6650,inactive
CG9109,1,97549,3362,inactive
CG14676,1,1.24e5,6660,inactive
eIF3l (eukaryotic translation initiation factor 3 subunit l),1,1.41e5,7653,inactive
Hem (HEM-protein),1,83190,3300,inactive
Rx (Retinal Homeobox),1,1.15e5,5072,inactive
Rx (Retinal Homeobox),2,1.00e5,4736,inactive
bnk (bottleneck),1,1.26e5,6742,inactive
CG18266,1,93856,3109,inactive
CG3117,1,1.60e5,5998,inactive
noi (noisette),1,58564,3892,inactive
CG42843 (retired record),1,1.40e5,6125,inactive
CG42843 (retired record),2,1.52e5,5259,inactive
CG42843 (retired record),3,1.59e5,5798,inactive
Cpr76Bc (Cuticular protein 76Bc),1,1.35e5,6974,inactive
Hex-C (Hexokinase C),1,1.00e5,3940,inactive

Continued; the last 3 above are carried over.
gene,reagent,"E2F firefly, rep 1","Renilla normaliser, rep 1",activity call
CG42843 (retired record),3,1.59e5,5798,inactive
Cpr76Bc (Cuticular protein 76Bc),1,1.35e5,6974,inactive
Hex-C (Hexokinase C),1,1.00e5,3940,inactive
Pdfr (Pigment-dispersing factor receptor),1,1.06e5,6162,inactive
Odc2 (Ornithine decarboxylase 2),1,1.44e5,5418,inactive
SA2 (Stromalin 2),1,1.04e5,4452,inactive
Klp59C (Kinesin-like protein at 59C),1,1.19e5,4322,inactive
CG15237,1,1.03e5,4212,inactive
CG15172,1,1.01e5,4190,inactive
CG30377,1,3054,213,inactive
CG30377,2,1.28e5,4690,inactive
vari (varicose),1,1.09e5,4482,inactive
Spn100A (Serpin 100A),1,1782,960,inactive
fos28F (retired record),1,1.58e5,5488,inactive
intr (intrepid),1,1888,792,inactive
CG9782,1,82710,3074,inactive
CG9782,2,1.52e5,5998,inactive
spz5 (spatzle 5),1,80244,3644,inactive
Vha68-1 (Vacuolar H[+] ATPase 68kD subunit 1),1,95372,3861,inactive
ArfGAP1 (ADP-ribosylation factor GTPase activating protein 1),1,1.03e5,5759,inactive
